For part of these data: At least one structure is not confirmed: it was looked up by name or label, or the drawing left a doubt. Some of these results come from one statement about several compounds together.
How the values were obtained:
RBL-2H3 cells = experiment: MTT cell viability assay, RBL-2H3; format: cell-based, Rat; details: 24 hours
RAW 264.7 cell line = experiment: MTT cell viability assay, RAW 264.7; format: cell-based, mouse; details: RAW 264.7, independent treatment, 24 hours
Procedure: RAW 264.7 cell line, a mouse macrophage cell line was purchased from KCLB (Korean Cell Line Bank, Korea). After RAW 264.7 was added with 10% fetal bovine serum (FBS, GIBCO, USA) and 1% antibiotics-antimycotic (GIBCO, USA), the cell was subcultured in Dulbecco's modified Eagle's medium (DMEM, WELGENE, Korea) in a 37° C., 5% CO2 incubator (Thermo Fisher Inc., USA).
A cell viability rate was analyzed by carrying out an MTT assay in order to determine the toxicity of the flavonoid components and Sorbus commixta ethanolic extract on the cell line treatment. The RAW 264.7 cell line was seeded 5×10^4 cells/well in a 96 well plate, and cultured in a 37° C., 5% CO2 incubator. After the culture, the flavonoid components and Sorbus commixta ethanolic extract were treated and additionally treated for the next 24 hours. After the additional culture, a 0.1 mg/mL MTT solution (Sigma-Aldrich Inc., USA) was dispensed in each well, the cells were cultured for 4 hours before the supernatant was removed. The resulting formazan was dissolved by seeding 100 μL of DMSO (Sigma-Aldrich Inc., USA) into each well, followed by orbital shaking (87.9 rpm) for 15 minutes, and optical density was measured at 540 nm using a Tecan infinite 200 microplate reader. The measured values of optical density were described as a percentage by substituting into the equation below.
Cell viability (%)=(Sample group O.D540/Control group O.D540)×100
To determine the cell viability of the RAW 264.7 cell line when independently treated with any one of the flavonoid components or the Sorbus commixta ethanol extract, cells were treated at concentrations of 1 μg/mL to 100 μg/mL for each flavonoid component, and 25, 50, 100, 250, and 500 ppm for Sorbus commixta ethanol extract.

[1] = test system: RBL-2H3 basophilic cell line; experiment: beta-Hexosaminidase release assay (degranulation by anti-DNP-IgE / DNP-BSA); format: cell-based, Rat; details: independent treatment
Procedure: Effects of quercetin, kaempferol, chrysin, and Sorbus commixta ethanolic extract on allergic response were determined by measuring the release of beta-Hexosaminidase through degranulation caused by the antibody-antigen binding in the RBL-2H3 basophilic cells. The RBL-2H3 basophilic cell line of Rat was purchased from ATCC (American Type Culture Collection, USA), and then it was added with a 10% fetal bovine serum and a 1% antibiotics-antimycotic in Dulbecco's modified Eagle's medium, and was subcultured in a 37° C., 5% CO2 incubator. […] After 4 hours, the reaction was terminated by adding 100 μL of 0.5 M sodium carbonate, and the optical density was measured at 405 nm using a Tecan infinite 200 microplate reader. First, RBL-2H3 cells' degranulation induced by antibody-antigen binding was determined when independently treated with any one of the flavonoid components or Sorbus commixta ethanolic extract. […] In that case, the amount of beta-hexosaminidase may be determined by measuring the optical density, which may it possible to compare the degree of induced inhibition or induced activation of degranulation. The changes in the amount of beta-Hexosaminidase released by the combined treatment of the Sorbus commixta ethanolic extract with any one of the three selected active ingredients of the flavonoid components were intended to be determined. […]

SMILES	cell viability (RBL-2H3 cells; RBL-2H3, 2.5 μg/mL)	cell viability (RBL-2H3 cells; RBL-2H3, 5 μg/mL)	cell viability rate (RAW 264.7 cell line; 10 μg/mL)	cell viability (RBL-2H3 cells; RBL-2H3, 1 μg/mL)	cell viability rate (RAW 264.7 cell line; 25 μg/mL)	degree of degranulation of RBL-2H3 cells (in words) [1]
O=c1c(O)c(-c2ccc(O)c(O)c2)oc2cc(O)cc(O)c12 [quercetin]	≥ 80%	≥ 80%	greater than 80%	–	–	–
O=c1c(O)c(-c2ccc(O)cc2)oc2cc(O)cc(O)c12 [kaempferol]	≥ 80%	≥ 80%	greater than 80%	≥ 80%	–	–
O=C(O)/C=C/c1ccc(O)c(O)c1 [caffeic acid]	–	–	–	–	greater than 80%	–
O=c1cc(-c2ccccc2)oc2cc(O)cc(O)c12 [chrysin]	≥ 80%	–	greater than 80%	≥ 80%	–	decreased the degree of degranulation

Source: patent publication US20240207327A1, “COMPOSITION INCLUDING PROPOLIS AND SORBUS COMMIXTA AS ACTIVE INGREDIENTS FOR ALLEVIATING AND TREATING INFLAMMATORY DISEASES AND ALLERGIC DISEASES” (Andong National University Industry-Academic Cooperation …, priority 2022, published 2024)
